In publication PMC6113293, “Phosphorylation of ULK1 affects autophagosome fusion and links chaperone-mediated autophagy to macroautophagy” (Nature Communications, 2018):
These are yes or no findings as the source states them, for the method shown. Binding seen in cells or lysates may run through a third protein. Some binding calls cover weakened binding; strength is not graded here. For some of these results: Tags and fused reporters may be left off the sequences shown. Values belong to the binder of their own block, whether it stands above or below them.

Columns and labels:
Conditions in all cases: remark: other sources report otherwise
Flag-SBP-STX17, P56962 = biological target: T1, Flag-SBP-STX17, P56962; assay: pull-down; Flag-SBP-STX17 co-transfected with GFP-SNAP29 or VAMP8 and GST-ULK1 variants into HEK293T; 'IP assay with SBP beads'; with or without CQ or bafilomycin A
T1 chain: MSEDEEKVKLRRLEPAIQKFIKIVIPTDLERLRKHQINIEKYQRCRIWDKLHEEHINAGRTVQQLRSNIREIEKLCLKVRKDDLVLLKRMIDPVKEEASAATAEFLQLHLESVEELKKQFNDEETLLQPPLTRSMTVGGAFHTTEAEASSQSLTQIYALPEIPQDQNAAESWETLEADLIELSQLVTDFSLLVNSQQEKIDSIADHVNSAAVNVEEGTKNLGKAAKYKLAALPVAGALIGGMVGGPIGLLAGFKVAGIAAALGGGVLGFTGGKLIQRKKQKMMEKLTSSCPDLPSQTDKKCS

[1] = biological target: T2, STX17 (endogenous) (human (endogenous in HeLa)), P56962; assay: co-IP; interaction of ULK1 and STX17 in cells with overexpression or knock-down of SNAP29 or knock-down of VAMP8; cells and constructs not given
T2 chain: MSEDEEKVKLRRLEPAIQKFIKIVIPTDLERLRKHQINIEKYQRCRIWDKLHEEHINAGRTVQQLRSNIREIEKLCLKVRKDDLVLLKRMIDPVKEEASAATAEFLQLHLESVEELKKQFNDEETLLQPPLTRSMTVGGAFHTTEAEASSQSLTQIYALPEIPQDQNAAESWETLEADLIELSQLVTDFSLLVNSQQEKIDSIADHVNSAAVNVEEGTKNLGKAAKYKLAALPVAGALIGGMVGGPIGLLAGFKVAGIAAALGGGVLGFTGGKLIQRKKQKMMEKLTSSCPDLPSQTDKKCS

[2] = biological target: T2, STX17 (endogenous) (human (endogenous …)); assay: co-IP; endogenous proteins, HeLa lysate; IP with anti-ULK1 or anti-STX17 antibody or IgG; western blot; cells also serum-starved, treated with CQ, PMA or GÖ6983, or transfected with Myc-ULK1 variants
GFP-STX17, P56962 = biological target: T3, GFP-STX17, P56962; assay: proximity ligation; GFP-STX17 co-transfected with Myc-ULK1 variants or Myc vector into HeLa; anti-Myc and anti-GFP antibodies; with or without serum starvation
T3 chain: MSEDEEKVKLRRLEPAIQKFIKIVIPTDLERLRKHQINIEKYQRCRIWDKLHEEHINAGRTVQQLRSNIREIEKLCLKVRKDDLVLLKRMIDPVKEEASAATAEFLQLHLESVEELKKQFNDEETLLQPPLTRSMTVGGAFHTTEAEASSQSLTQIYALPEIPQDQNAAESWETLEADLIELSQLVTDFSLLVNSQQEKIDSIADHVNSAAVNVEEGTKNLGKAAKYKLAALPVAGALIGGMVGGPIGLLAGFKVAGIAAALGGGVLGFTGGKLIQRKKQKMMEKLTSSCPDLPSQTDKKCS

binding (Flag-SBP-STX17, P56962): binds
B1: VAMP8 (transfected, tag not told), Q9BV40 1-100 (protein)
chain: MEEASEGGGNDRVRNLQSEVEGVKNIMTQNVERILARGENLEHLRNKTEDLEATSEHFKTTSQKVARKFWWKNVKMIVLICVIVFIIILFIVLFATGAFS

binding [1]: binds | binding [2]: binds
B2: ULK1 (endogenous), O75385 1-1050 (enzyme)
chain: MEPGRGGTETVGKFEFSRKDLIGHGAFAVVFKGRHREKHDLEVAVKCINKKNLAKSQTLLGKEIKILKELKHENIVALYDFQEMANSVYLVMEYCNGGDLADYLHAMRTLSEDTIRLFLQQIAGAMRLLHSKGIIHRDLKPQNILLSNPAGRRANPNSIRVKIADFGFARYLQSNMMAATLCGSPMYMAPEVIMSQHYDGKADLWSIGTIVYQCLTGKAPFQASSPQDLRLFYEKNKTLVPTIPRETSAPLRQLLLALLQRNHKDRMDFDEFFHHPFLDASPSVRKSPPVPVPSYPSSGSGSSSSSSSTSHLASPPSLGEMQQLQKTLASPADTAGFLHSSRDSGGSKDSSCDTDDFVMVPAQFPGDLVAEAPSAKPPPDSLMCSGSSLVASAGLESHGRTPSPSPPCSSSPSPSGRAGPFSSSRCGASVPIPVPTQVQNYQRIERNLQSPTQFQTPRSSAIRRSGSTSPLGFARASPSPPAHAEHGGVLARKMSLGGGRPYTPSPQVGTIPERPGWSGTPSPQGAEMRGGRSPRPGSSAPEHSPRTSGLGCRLHSAPNLSDLHVVRPKLPKPPTDPLGAVFSPPQASPPQPSHGLQSCRNLRGSPKLPDFLQRNPLPPILGSPTKAVPSFDFPKTPSSQNLLALLARQGVVMTPPRNRTLPDLSEVGPFHGQPLGPGLRPGEDPKGPFGRSFSTSRLTDLLLKAAFGTQAPDPGSTESLQEKPMEIAPSAGFGGSLHPGARAGGTSSPSPVVFTVGSPPSGSTPPQGPRTRMFSAGPTGSASSSARHLVPGPCSEAPAPELPAPGHGCSFADPITANLEGAVTFEAPDLPEETLMEQEHTEILRGLRFTLLFVQHVLEIAALKGSASEAAGGPEYQLQESVVADQISLLSREWGFAEQLVLYLKVAELLSSGLQSAIDQIRAGKLCLSSTVKQVVRRLNELYKASVVSCQGLSLRLQRFFLDKQRLLDRIHSITAERLIFSHAVQMVQSAALDEMFQHREGCVPRYHKALLLLEGLQHMLSDQADIENVTKCKLCIERRLSALLTGICA

binding (GFP-STX17, P56962): binds
B3: Myc-ULK1 WT, O75385 1-1050 (enzyme)
chain: MEPGRGGTETVGKFEFSRKDLIGHGAFAVVFKGRHREKHDLEVAVKCINKKNLAKSQTLLGKEIKILKELKHENIVALYDFQEMANSVYLVMEYCNGGDLADYLHAMRTLSEDTIRLFLQQIAGAMRLLHSKGIIHRDLKPQNILLSNPAGRRANPNSIRVKIADFGFARYLQSNMMAATLCGSPMYMAPEVIMSQHYDGKADLWSIGTIVYQCLTGKAPFQASSPQDLRLFYEKNKTLVPTIPRETSAPLRQLLLALLQRNHKDRMDFDEFFHHPFLDASPSVRKSPPVPVPSYPSSGSGSSSSSSSTSHLASPPSLGEMQQLQKTLASPADTAGFLHSSRDSGGSKDSSCDTDDFVMVPAQFPGDLVAEAPSAKPPPDSLMCSGSSLVASAGLESHGRTPSPSPPCSSSPSPSGRAGPFSSSRCGASVPIPVPTQVQNYQRIERNLQSPTQFQTPRSSAIRRSGSTSPLGFARASPSPPAHAEHGGVLARKMSLGGGRPYTPSPQVGTIPERPGWSGTPSPQGAEMRGGRSPRPGSSAPEHSPRTSGLGCRLHSAPNLSDLHVVRPKLPKPPTDPLGAVFSPPQASPPQPSHGLQSCRNLRGSPKLPDFLQRNPLPPILGSPTKAVPSFDFPKTPSSQNLLALLARQGVVMTPPRNRTLPDLSEVGPFHGQPLGPGLRPGEDPKGPFGRSFSTSRLTDLLLKAAFGTQAPDPGSTESLQEKPMEIAPSAGFGGSLHPGARAGGTSSPSPVVFTVGSPPSGSTPPQGPRTRMFSAGPTGSASSSARHLVPGPCSEAPAPELPAPGHGCSFADPITANLEGAVTFEAPDLPEETLMEQEHTEILRGLRFTLLFVQHVLEIAALKGSASEAAGGPEYQLQESVVADQISLLSREWGFAEQLVLYLKVAELLSSGLQSAIDQIRAGKLCLSSTVKQVVRRLNELYKASVVSCQGLSLRLQRFFLDKQRLLDRIHSITAERLIFSHAVQMVQSAALDEMFQHREGCVPRYHKALLLLEGLQHMLSDQADIENVTKCKLCIERRLSALLTGICA
